For 40 sequences, binding signal results are on record in publication PMC7862700.

Some of the results follow. The exact form of the protein is not confirmed.

The target in the experiment is T1, ETV4 (UniProt P43268).
T1 sequence: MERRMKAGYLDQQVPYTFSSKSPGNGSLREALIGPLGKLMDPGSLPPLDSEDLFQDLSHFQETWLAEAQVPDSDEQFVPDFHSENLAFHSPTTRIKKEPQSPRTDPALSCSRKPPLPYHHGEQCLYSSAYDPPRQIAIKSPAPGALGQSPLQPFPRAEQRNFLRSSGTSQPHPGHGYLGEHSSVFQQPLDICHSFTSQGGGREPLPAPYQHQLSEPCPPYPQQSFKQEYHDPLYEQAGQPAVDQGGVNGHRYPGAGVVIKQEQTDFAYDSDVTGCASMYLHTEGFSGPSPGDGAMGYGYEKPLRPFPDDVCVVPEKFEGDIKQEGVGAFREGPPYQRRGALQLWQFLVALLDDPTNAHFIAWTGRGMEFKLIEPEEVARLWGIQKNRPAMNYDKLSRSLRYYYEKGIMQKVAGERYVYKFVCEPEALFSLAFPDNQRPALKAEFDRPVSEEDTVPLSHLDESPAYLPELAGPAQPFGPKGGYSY
As to the kind of experiment: DAPPL (digital affinity profiling via proximity ligation, sequencing). To be noted: 10 mM Tris-HCl pH 7.5, 50 mM NaCl, 1 mM DTT, 4% glycerol, room temperature, 30 min; GST-TFs on glutathione beads, 16-mer random dsDNA library, 0.1% …; high values mean tight binding; double strand, one strand shown; scale: fold enrichment (6-mer frequency, TF over GST control).
For the sequence CAATCT, the binding signal was 1.22.
To CCATTA belongs 1.11; to TCTTCC, 2.54.
Take CGTTTC: the binding signal was 1.8.
The value for TCACCT was 1.24; that for ACCATT was 1.14; that for ATGTGC was 1.11.
GGCTAT registered a binding signal of 0.979.
The value for TAGTAT was 1.3; that for TTTCCA was 1.36.
TATTTA displayed a binding signal of 1.34.
On to TAAGAA, for which the binding signal was found to be 1.07.
As for ACCTAT, the binding signal amounted to 1.27.
The sequence GCACAA yielded a binding signal of 1.02.
The sequence CATTCA had a binding signal of 1.06.
In turn, ACCCCT showed a binding signal of 1.05.
The sequence TTTCAC registered a binding signal of 1.37.
Take CTACCA: the binding signal was 1.28.
As to AAAATG, the binding signal worked out at 1.14.
On to AAGTTG, for which the binding signal is 1.07.
ACCCTG: the binding signal is 1.02.
Consider CCTTGT, for which the binding signal turned out to be 1.22.
TGTAAC yielded a binding signal of 1.3.
For the sequence GTTCGC, the binding signal stood at 1.07.
With TCCATT, the binding signal is 1.31.
Consider TTGTAT, for which the binding signal stood at 1.32.
In turn, AATGAA yielded a binding signal of 1.15.
In turn, GCGTCT had a binding signal of 1.06.
With TATACG, the binding signal was found to be 1.27.
The sequence CCCTTA gave a binding signal of 1.4.
In turn, GCACCT displayed a binding signal of 1.11.
The sequence TGTTAC showed a binding signal of 1.46.
ATCGAC came in with a binding signal of 1.1.
The sequence CAATTC had a binding signal of 1.29.
Take ATTAAG: the binding signal was determined as 1.07.
Consider ACATAA, for which the binding signal was determined as 1.08.
CTGTTG: the binding signal was determined as 1.04.
In turn, TAGTTA gave a binding signal of 1.13.
The value for CACCAC was 1.19.
GAAGTA gave a binding signal of 2.15.
